The record followed here is US20060193771A1.

Substitutions are numbered along the chain they refer to. Results are given in words; binding and its absence hold for the method and conditions named. For some assays here: Binding calls can cover weak binding; strength is not graded here.

Assay [1] addresses CD30 in Western blots (human). The assay is described as follows: Western blot. In general terms: Immunoblotting shows a protein as a band on a membrane.
Assay [2] addresses soluble CD30 produced by shedding from L540 cells (culture supernatant) (human). Briefly: competitive ELISA, soluble CD30 (L540 supernatant) against coated CD30-Fc. For orientation: An ELISA detects its analyte on a solid surface through an enzyme-linked reagent.

B1: T201 MAb (antibody, V domains shown)
VH: QVQLKESGPGLVAPSQSLSITCTVSGFSLIDYGVSWVRQPPGKGLEWLGMIWGDGNTDYNSGLKSRLSISKDNSKSQVFLKVNSLQTDDTARYYCARPSTGTLFAYWGQGTLVTVSA
VL: EIVLTQSPTTMAASPGERITFTCSASSGISSIYLHWYQQKPGFSPKLLIYRTSNLASGVPPRFSGSGSGTSYSLTIGTMEAEDVATYYCQQGSSIPLTFGAGTKLELKR
For B1, the binding entry is on record as “no binding” in assay [1] and “binds” in assay [2].

B2: T13 MAb (antibody, V domains shown)
VH: QVQLQQSGAELAKPGASVKMSCKASGYTFTTYWMHWVKQRPGQGLEWIGYINPSTGYTDYNEKFKDKATLTADKSSSTAYMQLSSLTSEDSAVYYCVRRGSYDGNPFAYWGQGTLVSVSA
VL: DIVMTQSHKFMSTSVGDRVTITCKASQDVSTAVAWYQQKPGHSPKLLIYWASTRHTGVPDRFTGSGSGTDYTLTISSVQVEDLALYYCQQHYSTPFTFGSGTKLEIKR
Consider B2, for which the binding result in assay [2] was “binds”.

B3: T420 MAb (antibody, V domains shown)
VH: QVQLQQSGAELAKPGASVKMSCKASGYTFTSYWMHWVKQRPGQDLEWIGYINPSTDYTDYNQKFKDKATLTADKSSSTAYMQLSSLTSEDSAVYYCATRHYGSSYGFAYWGQGTLVTVSA
VL: B2 VL with T20S, H42Q, T72S, V80A, L85V, S93R
On to B3, for which the binding result in assay [2] is recorded as “binds”.

B4: T24 MAb (antibody, V domains shown)
VH: QVQLQQPGAELVRPGASVKLSCKASGYSFTSYWIDWVKQRPGQGLEWIGNIYPSNAYTNYNQKFKDKATLTVDKSSSTAYMQLSSPTSEDSAVYYCTSVLDYFYAMDYWGQGTSVTVSS
VL: DIQMTQTTSSLSASLGDRVTISCRASQDISNYLNWYQQKPDGTVKLLIYYTSRLHSGVPSRFSGSGSGTDYSLTISNLEQEDIATYFCQQVNTLPRTFGGGTKLEIKR
Regarding B4, in assay [2], the binding entry is “binds”.
